# Results as given in doi:10.1101/2021.07.13.452273.
# Protein sequences, listed by entry. Tags and fused reporters are not part of them. Lines headed by an entry give the natural chain unless they say otherwise; changes in a name come on top. Residues count along the entry.
# UniProt P32558: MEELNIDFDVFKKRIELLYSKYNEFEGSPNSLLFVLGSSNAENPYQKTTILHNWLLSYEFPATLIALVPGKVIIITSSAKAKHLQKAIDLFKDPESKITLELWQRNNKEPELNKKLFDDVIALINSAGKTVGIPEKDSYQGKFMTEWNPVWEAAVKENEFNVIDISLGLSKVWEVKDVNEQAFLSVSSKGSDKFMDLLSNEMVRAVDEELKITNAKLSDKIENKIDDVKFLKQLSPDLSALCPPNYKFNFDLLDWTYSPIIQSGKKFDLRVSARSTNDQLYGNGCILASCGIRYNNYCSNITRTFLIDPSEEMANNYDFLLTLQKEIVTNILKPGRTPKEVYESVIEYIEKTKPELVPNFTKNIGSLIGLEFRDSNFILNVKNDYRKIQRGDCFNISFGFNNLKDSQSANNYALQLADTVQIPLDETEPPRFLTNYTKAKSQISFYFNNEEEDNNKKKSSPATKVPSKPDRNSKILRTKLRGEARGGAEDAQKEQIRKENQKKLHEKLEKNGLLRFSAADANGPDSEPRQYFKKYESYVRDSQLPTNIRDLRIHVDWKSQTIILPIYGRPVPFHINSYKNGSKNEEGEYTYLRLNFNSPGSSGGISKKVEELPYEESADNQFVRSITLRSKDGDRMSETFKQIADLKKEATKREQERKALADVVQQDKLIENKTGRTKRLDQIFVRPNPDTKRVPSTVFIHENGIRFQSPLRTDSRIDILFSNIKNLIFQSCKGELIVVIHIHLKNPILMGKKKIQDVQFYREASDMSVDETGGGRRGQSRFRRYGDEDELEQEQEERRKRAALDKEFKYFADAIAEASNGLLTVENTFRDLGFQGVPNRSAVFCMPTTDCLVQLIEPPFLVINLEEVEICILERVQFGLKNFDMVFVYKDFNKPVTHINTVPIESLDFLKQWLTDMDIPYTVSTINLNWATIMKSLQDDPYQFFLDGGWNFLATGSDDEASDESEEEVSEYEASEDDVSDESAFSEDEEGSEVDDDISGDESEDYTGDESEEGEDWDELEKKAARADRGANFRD
# Spt16ΔC: residues 1-958 of P32558
# UniProt Q04636: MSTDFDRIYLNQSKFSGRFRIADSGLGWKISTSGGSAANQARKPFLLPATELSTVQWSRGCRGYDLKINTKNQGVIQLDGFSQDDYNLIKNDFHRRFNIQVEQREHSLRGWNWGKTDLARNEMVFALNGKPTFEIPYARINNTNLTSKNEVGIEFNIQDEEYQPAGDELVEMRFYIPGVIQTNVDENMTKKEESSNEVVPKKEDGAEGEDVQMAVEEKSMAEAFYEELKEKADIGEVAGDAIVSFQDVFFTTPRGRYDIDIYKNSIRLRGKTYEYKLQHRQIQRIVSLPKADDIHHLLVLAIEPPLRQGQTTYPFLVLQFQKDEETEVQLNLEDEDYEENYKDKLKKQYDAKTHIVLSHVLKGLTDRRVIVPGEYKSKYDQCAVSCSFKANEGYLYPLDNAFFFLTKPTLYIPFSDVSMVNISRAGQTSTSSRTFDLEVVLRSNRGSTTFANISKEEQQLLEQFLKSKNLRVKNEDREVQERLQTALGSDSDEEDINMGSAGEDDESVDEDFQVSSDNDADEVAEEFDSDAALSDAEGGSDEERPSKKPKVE
# No constants are given. Whether binding was seen depends on the method and setting. Some results given as binding are weak or reduced against the parent protein; the word gives no strength.
# Legend:
# Spt16ΔC (yeast) = Spt16ΔC (yeast) (UniProt P32558); assay: co-purification
# [1] = target: Spt16 (Suppressor of Ty), larger subunit of yeast FACT (yeast) (UniProt P32558); assay: co-purification
binding (Spt16ΔC (yeast)),binding [1],Substance
binds,binds,"Pob3 (Polymerase One Binding), smaller subunit of yeast FACT (from UniProt Q04636 1-552)"
binds,binds,Pob3ΔC (from UniProt Q04636 1-477) (domain or fragment)
